From the supplement of paper PMC10849652
This is one part of the list.

The chains behind the UniProt entries cited, without tags or fusion partners. Where a name states a change or a piece, a line headed by the entry shows the natural chain unless it says otherwise.
UniProt O60763: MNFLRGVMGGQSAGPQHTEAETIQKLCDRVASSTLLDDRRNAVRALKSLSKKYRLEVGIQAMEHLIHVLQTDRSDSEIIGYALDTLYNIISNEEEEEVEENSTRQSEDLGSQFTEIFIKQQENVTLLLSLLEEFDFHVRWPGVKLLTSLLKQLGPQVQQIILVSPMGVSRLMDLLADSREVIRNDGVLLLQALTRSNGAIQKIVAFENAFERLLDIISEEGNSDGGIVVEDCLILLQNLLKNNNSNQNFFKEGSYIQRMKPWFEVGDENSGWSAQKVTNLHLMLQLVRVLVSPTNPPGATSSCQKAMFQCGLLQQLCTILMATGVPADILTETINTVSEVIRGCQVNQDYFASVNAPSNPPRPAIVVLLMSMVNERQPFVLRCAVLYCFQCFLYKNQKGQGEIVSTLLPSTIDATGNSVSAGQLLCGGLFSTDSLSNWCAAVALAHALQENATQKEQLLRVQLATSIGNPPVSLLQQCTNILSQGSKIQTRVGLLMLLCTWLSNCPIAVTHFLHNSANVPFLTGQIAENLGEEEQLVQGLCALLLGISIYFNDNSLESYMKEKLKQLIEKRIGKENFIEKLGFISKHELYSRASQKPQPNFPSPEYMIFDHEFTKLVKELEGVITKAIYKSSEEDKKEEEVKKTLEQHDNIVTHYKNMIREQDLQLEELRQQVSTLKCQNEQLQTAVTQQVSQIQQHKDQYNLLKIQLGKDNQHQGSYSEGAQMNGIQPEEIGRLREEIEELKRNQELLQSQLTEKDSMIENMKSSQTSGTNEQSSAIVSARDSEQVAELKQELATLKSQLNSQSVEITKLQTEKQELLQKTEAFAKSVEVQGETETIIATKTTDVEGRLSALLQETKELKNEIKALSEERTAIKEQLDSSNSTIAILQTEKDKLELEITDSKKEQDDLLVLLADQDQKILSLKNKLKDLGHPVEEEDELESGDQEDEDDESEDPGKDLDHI
UniProt P50552: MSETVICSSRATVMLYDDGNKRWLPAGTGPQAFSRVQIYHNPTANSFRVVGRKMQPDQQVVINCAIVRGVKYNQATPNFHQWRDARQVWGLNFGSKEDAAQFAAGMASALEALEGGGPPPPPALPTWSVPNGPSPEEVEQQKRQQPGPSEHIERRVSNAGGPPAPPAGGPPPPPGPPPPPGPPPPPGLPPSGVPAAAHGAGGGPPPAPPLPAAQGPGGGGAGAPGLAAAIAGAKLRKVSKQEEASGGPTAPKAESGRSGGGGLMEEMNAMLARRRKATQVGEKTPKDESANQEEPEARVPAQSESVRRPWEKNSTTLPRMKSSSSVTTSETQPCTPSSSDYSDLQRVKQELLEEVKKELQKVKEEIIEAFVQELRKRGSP
UniProt Q8TAA9: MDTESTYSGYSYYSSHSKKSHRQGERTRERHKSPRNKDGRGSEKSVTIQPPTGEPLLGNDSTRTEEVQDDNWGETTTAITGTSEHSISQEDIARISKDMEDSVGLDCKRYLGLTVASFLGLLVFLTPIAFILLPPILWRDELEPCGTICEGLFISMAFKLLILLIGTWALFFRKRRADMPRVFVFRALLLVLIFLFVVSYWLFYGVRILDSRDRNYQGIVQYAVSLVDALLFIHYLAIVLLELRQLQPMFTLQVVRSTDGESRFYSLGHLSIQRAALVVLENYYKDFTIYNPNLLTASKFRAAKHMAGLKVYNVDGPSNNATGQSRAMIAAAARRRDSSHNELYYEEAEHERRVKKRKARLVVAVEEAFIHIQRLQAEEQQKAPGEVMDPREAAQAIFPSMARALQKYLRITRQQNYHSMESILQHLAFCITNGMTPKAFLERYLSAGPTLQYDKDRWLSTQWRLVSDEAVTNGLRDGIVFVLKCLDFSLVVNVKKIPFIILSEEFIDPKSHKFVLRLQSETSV
UniProt Q9Y6I4: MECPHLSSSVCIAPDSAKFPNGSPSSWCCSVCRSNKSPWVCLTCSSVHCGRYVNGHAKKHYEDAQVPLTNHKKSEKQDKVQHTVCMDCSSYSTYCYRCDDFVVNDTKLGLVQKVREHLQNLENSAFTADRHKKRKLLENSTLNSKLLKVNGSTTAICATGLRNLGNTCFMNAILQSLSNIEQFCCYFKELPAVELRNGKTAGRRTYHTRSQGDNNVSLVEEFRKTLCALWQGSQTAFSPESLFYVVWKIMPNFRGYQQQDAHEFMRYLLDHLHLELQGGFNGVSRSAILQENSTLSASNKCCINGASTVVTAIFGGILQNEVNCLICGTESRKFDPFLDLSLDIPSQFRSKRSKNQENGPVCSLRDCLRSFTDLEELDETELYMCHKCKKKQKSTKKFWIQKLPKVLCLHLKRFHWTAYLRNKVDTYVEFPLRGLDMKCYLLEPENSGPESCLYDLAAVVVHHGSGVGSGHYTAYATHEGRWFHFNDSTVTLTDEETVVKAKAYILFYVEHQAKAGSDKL
UniProt Q9Y5J1: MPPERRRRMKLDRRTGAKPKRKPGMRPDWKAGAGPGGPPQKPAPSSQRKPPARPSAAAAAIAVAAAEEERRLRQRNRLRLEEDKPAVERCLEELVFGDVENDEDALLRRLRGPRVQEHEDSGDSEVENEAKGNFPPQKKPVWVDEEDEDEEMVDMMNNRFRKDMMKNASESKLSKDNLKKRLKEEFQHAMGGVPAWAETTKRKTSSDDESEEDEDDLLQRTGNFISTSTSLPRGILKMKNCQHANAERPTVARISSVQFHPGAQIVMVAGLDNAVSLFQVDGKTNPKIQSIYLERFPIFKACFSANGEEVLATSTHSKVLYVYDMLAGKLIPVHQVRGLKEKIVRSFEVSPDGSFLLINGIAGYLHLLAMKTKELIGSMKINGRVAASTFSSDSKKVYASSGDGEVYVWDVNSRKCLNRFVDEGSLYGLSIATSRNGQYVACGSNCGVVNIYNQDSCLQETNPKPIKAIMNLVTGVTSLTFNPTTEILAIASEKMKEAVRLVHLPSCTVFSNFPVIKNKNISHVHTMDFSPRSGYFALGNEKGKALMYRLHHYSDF
UniProt P21796, whole entry, looked up: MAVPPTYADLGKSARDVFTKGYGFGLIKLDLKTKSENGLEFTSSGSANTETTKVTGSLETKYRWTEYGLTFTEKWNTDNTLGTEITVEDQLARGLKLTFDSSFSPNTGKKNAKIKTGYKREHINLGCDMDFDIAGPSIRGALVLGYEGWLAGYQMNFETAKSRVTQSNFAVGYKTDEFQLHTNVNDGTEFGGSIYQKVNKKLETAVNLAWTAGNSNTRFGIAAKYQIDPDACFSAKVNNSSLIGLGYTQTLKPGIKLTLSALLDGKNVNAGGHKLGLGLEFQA
UniProt O75691: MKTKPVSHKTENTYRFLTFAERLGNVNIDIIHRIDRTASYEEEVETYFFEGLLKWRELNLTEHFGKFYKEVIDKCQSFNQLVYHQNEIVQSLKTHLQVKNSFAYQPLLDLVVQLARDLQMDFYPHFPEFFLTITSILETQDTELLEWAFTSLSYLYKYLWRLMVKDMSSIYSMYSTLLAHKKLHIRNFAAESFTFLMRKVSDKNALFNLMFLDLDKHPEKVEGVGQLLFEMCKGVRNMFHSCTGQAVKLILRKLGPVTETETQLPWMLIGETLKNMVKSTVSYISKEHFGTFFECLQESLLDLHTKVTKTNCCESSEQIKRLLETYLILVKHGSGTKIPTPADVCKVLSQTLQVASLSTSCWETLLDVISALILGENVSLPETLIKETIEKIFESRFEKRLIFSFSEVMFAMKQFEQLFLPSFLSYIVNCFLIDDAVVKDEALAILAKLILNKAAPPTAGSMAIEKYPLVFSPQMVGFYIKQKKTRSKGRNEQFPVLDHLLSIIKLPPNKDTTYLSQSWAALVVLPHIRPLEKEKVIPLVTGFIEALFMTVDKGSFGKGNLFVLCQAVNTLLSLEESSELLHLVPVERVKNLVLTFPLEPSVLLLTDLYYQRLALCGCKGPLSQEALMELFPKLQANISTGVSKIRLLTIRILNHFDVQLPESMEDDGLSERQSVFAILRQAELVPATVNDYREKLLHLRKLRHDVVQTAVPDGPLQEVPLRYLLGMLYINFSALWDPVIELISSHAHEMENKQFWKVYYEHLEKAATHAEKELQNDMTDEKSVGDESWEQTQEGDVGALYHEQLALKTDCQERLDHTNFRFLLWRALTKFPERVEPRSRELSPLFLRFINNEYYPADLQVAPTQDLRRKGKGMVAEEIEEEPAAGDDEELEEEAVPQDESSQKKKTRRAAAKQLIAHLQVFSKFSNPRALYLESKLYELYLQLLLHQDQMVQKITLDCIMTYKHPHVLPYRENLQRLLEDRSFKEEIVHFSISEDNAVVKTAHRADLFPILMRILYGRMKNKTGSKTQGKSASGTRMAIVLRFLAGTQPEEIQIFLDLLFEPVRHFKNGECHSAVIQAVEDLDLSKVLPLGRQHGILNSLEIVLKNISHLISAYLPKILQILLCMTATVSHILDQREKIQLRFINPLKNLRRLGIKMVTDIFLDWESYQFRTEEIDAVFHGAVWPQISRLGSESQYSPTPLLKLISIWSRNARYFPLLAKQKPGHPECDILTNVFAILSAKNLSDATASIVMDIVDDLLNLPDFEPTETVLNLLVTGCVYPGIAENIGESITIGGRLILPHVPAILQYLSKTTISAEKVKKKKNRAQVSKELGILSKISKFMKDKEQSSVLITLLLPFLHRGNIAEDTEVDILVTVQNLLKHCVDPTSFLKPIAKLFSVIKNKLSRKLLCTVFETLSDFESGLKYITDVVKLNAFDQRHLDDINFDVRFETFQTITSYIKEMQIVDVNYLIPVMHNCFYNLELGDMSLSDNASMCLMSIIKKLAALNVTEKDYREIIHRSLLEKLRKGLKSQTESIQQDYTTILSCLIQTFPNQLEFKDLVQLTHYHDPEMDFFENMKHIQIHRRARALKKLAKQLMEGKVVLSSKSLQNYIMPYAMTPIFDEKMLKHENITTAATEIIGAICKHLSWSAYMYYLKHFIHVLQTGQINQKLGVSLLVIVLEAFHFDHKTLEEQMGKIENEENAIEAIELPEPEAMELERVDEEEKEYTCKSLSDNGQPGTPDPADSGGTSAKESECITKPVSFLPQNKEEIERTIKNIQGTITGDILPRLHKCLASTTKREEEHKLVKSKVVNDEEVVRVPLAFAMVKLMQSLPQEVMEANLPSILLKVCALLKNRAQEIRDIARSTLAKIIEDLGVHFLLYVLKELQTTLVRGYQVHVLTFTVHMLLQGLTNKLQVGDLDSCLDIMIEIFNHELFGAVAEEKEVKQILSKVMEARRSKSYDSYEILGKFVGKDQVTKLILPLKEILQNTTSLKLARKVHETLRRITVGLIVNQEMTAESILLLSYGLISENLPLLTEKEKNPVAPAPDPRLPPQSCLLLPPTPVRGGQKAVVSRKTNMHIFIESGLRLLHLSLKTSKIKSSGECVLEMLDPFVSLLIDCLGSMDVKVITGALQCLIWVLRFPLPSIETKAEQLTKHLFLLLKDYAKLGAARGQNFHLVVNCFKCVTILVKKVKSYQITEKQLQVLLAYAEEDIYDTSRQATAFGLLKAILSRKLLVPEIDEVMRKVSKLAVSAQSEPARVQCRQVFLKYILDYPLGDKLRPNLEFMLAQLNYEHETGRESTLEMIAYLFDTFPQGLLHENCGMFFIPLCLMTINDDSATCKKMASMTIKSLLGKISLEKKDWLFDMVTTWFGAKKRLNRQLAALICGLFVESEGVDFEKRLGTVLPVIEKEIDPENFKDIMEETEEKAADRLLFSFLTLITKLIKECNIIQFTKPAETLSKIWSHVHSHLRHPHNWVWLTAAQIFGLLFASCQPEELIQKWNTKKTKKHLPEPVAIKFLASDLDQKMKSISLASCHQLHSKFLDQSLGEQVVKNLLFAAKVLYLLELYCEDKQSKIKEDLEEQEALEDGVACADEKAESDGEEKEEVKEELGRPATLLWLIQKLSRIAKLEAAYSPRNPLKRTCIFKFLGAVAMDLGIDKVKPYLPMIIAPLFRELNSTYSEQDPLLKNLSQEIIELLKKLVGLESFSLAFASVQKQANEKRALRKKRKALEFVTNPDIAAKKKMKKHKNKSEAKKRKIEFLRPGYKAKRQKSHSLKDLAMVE
UniProt Q6PHR2: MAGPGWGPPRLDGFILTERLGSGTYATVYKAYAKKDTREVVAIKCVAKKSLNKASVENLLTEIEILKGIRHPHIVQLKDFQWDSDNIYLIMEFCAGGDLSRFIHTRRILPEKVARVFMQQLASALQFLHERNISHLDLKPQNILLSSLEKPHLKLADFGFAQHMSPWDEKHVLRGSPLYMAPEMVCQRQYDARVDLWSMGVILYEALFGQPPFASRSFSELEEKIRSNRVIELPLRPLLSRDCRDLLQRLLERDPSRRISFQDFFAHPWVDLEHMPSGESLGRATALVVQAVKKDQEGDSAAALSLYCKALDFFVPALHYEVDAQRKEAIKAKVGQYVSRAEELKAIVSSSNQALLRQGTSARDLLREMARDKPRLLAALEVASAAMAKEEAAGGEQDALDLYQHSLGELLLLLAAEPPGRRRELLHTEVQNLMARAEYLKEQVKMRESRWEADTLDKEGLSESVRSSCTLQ
UniProt P63027, whole entry, looked up: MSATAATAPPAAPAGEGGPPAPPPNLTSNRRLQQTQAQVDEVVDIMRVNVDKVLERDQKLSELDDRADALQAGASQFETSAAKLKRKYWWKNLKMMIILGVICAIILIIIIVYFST

Columns and labels:
Assay in all cases: log2 fold change, soluble protein after heating vs DMSO (PISA); higher = thermal stabilisation; K562 lysate, 10 uM; active = over 0.2 and 3.5 SD of the protein, either way, in both replicates (recomputed)
[1] = compound: NCC(=O)Nc1ccc(-n2nc(C(F)(F)F)cc2-c2ccc3c(ccc4ccccc43)c2)cc1
How it was run: (§1)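 Pellets of K562 cells were dounce-homogenised in PBS pH 7.4 with 1 mM MgCl2, and the crude extract was held at 1 mg/mL protein for a 30 min treatment with 10 μM compound. Aliquots were heated for 3 min over 48°C-58°C and pooled before NP-40 was added to 0.5% at 4°C. The supernatant from 21,000xg for 90 min was quantified by TMTpro 16plex LC-MS/MS with channel sums equalised. Values are reported from duplicates as log-two fold change in thermal stability relative to solvent controls.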

vorinostat = compound: O=C(CCCCCCC(=O)Nc1ccccc1)NO [vorinostat]
How it was run: as §1

silmitasertib = compound: O=C(O)c1ccc2c(c1)nc(Nc1cccc(Cl)c1)c1ccncc12 [silmitasertib]
How it was run: as §1

[2] = compound: O=C1NC(=O)C(c2cnc3ccccn23)=C1c1cn2c3c(cc(F)cc13)CN(C(=O)N1CCCCC1)CC2
How it was run: as §1

entospletinib = compound: c1cn2cc(-c3ccc4cn[nH]c4c3)nc(Nc3ccc(N4CCOCC4)cc3)c2n1 [entospletinib]
How it was run: as §1

Row | Target | log2 fold change [1] | log2 fold change (vorinostat) | log2 fold change (silmitasertib) | log2 fold change [2] | log2 fold change (entospletinib)
1 | UTP15 (UniProt Q8TED0) | inactive: -0.006 | inactive: 0.008 | inactive: -0.002 | inactive: 0.014 | inactive: 0.028
2 | USO1 (UniProt O60763) | inactive: -0.102 | inactive: -0.066 | inactive: 0.003 | inactive: 0.064 | inactive: 0.047
3 | USP19 isoform 6 (UniProt O94966) | inactive: 0.033 | inactive: -0.121 | inactive: -0.024 | inactive: 0.001 | inactive: -0.045
4 | VASP (UniProt P50552) | inactive: 0.035 | inactive: 0.015 | inactive: 0.015 | inactive: 0.01 | inactive: -0.013
5 | USP24 (UniProt Q9UPU5) | inactive: 0.009 | inactive: -0.077 | inactive: 0.044 | inactive: -0.028 | inactive: 0.008
6 | UTP4 (UniProt Q969X6) | inactive: -0.022 | inactive: 0.037 | inactive: 0.015 | inactive: -0.039 | inactive: -0.058
7 | UVRAG (UniProt Q9P2Y5) | inactive: -0.036 | inactive: -0.106 | inactive: 0.058 | inactive: -0.002 | inactive: 0.031
8 | USO1 isoform 2 (UniProt O60763) | inactive: 0.01 | inactive: 0.051 | inactive: -0.005 | inactive: -0.004 | inactive: -0.01
9 | VANGL1 (UniProt Q8TAA9) | inactive: -0.04 | inactive: 0.085 | inactive: 0.159 | inactive: -0.031 | inactive: -0.009
10 | USP3 (UniProt Q9Y6I4) | inactive: 0.015 | active: -0.469 | inactive: -0.026 | inactive: 0.015 | inactive: -0.013
11 | VIRMA (UniProt Q69YN4) | inactive: -0.022 | inactive: -0.094 | inactive: 0.014 | inactive: 0.033 | inactive: -0.104
12 | UTP18 (UniProt Q9Y5J1) | inactive: 0.045 | inactive: -0.078 | inactive: -0.014 | inactive: 0.029 | inactive: -0.136
13 | VAV1 (UniProt P15498) | inactive: -0.003 | active: -0.268 | inactive: 0 | inactive: -0.027 | inactive: 0.004
14 | VARS2, A0A0G2JL52 | inactive: -0.012 | inactive: -0.088 | inactive: 0.009 | inactive: -0.003 | inactive: -0.02
15 | USP14 (UniProt P54578) | inactive: 0.022 | inactive: 0.06 | inactive: -0.005 | inactive: 0.004 | inactive: -0.01
16 | USP48 isoform 8 (UniProt Q86UV5) | inactive: 0.014 | active: -0.474 | inactive: 0.009 | inactive: -0.022 | inactive: 0.021
17 | VAPB (UniProt O95292) | inactive: 0.057 | inactive: 0.039 | inactive: -0.025 | inactive: -0.038 | inactive: 0.033
18 | VDAC1 (UniProt P21796) | inactive: 0.015 | inactive: 0.148 | inactive: -0.019 | inactive: 0.007 | inactive: -0.005
19 | UTP20 (UniProt O75691) | inactive: -0.213 | inactive: -0.058 | inactive: 0.02 | inactive: -0.023 | inactive: -0.036
20 | USP15 (UniProt Q9Y4E8) | inactive: 0.001 | inactive: -0.033 | inactive: 0.021 | inactive: -0.033 | inactive: 0.008
21 | VCL (UniProt P18206) | inactive: -0.001 | inactive: 0.106 | inactive: -0.018 | inactive: -0.008 | inactive: -0.003
22 | UTP14A (UniProt Q9BVJ6) | inactive: -0.024 | inactive: 0.09 | inactive: -0.119 | inactive: -0.018 | inactive: -0.014
23 | ULK3 isoform 4 (UniProt Q6PHR2) | inactive: -0.102 | inactive: -0.05 | inactive: 0.242 | inactive: 0.046 | inactive: 0.273
24 | VAMP2 (UniProt P63027) | inactive: 0.071 | inactive: 0.016 | inactive: -0.008 | inactive: 0.132 | inactive: -0.054

Single records, from the list above. Order of values: log2 fold change [1]	log2 fold change (vorinostat)	log2 fold change (silmitasertib)	log2 fold change [2]	log2 fold change (entospletinib)
USP24 (UniProt Q9UPU5) is entered as inactive: 0.009	inactive: -0.077	inactive: 0.044	inactive: -0.028	inactive: 0.008
USP19 isoform 6 (UniProt O94966) is entered as inactive: 0.033	inactive: -0.121	inactive: -0.024	inactive: 0.001	inactive: -0.045
